According to patent publication US11531036B2, “Method and apparatus for determining the efficacy of statins for treating inflammatory diseases in individual patients” (Queen Mary University of London, priority 2017, dated 2022):

Test system: 13-series resolvins (RvT) and eicosanoids
[1] = 0.2 mg/Kg, plasma 24 h after last dose
[2] = blood 2 h after last statin dose on day 7

CC(C)c1c(C(=O)Nc2ccccc2)c(-c2ccccc2)c(-c2ccc(F)cc2)n1CC[C@@H](O)C[C@@H](O)CC(=O)O [atorvastatin]
plasma LTB4, PGD2, PGE2, PGF2α and TxB2 levels [1]: decreases
plasma RvT1 concentration [1]: increased
plasma RvT4 concentration [1]: only increased by atorvastatin
increase in plasma/peripheral blood RvT compared with vehicle [2]: > 200%
individual RvT increased in plasma compared with vehicle [2]: increases in RvT1, RvT2 and RvT3
